According to patent US6087330A (Texas Biotechnology Corporation, priority 1998, dated 2000):
Where no end group is shown, it is not given here.

Test: general procedure: Fmoc solid-phase peptide synthesis; Fmoc-Cys(Trt) Wang resin; HBTU or DIC, if necessary HOBT
Settings: whole synthesis, scale 25 nM

CWLDVC-OH (cysteine pairing not given here)
final HPLC purity (analytical HPLC): >98%
isolated mass: 10.2 mg
